Reference: US20250049037A1, “HERBICIDAL ACTIVITY OF ALKYL PHOSPHINATES” (priority 2021, published 2025)
Some entries share one result that the patent states for a list of compounds. For at least one compound, name, drawing or mass did not settle the structure. Some compounds share one range, which may span the group rather than tell each member.

Tests used:
Setaria viridis (SETVI) = test: Greenhouse herbicidal test, post-emergence; format: in vivo; details: postemergence, application rate 5 kg/ha, scale 0 to 100
Excerpt: (§1) The culture containers used were plastic flowerpots containing loamy sand with approximately 3.0% of humus as the substrate. The seeds of the test plants were sown separately for each species.
For the post-emergence treatment, the test plants were first grown to a height of 2 to 15 cm, depending on the plant habit, and only then treated with the active ingredients which had been suspended or emulsified in water. For this purpose, the test plants were either sown directly and grown in the same containers, or they were first grown separately as seedlings and transplanted into the test containers a few days prior to treatment.
(§2) Depending on the species, the test plants were kept at 10-25° C. or 20-35° C., respectively.
(§3) The test period extended over 2 to 4 weeks. During this time, the test plants were tended, and their response to the individual treatments was evaluated.
(§4) Evaluation was carried out using a scale from 0 to 100. 100 means no emergence of the test plants, or complete destruction of at least the aerial moieties, and 0 means no damage, or normal course of growth. A moderate herbicidal activity is given at values of 40 to 59, good herbicidal activity is given at values of more than 59 to 80 and a very good herbicidal activity is given at values of more than 80 to 100.

[1] = tested on: Apera spica-venti (APESV); test: Greenhouse herbicidal test, pre-emergence; format: in vivo; details: application rate 5 kg/ha, scale 0 to 100
Excerpt: as §1
For the pre-emergence treatment, the active ingredients, which had been suspended or emulsified in water, were applied directly after sowing by means of finely distributing nozzles. The containers were irrigated gently to promote germination and growth and subsequently covered with transparent plastic hoods until the test plants had rooted. This cover caused uniform germination of the test plants, unless this had been impaired by the active ingredients.
as §2, §3, §4

Compound: CCCCOP(C)(=O)CCC(NC(N)=O)C(=O)O (stereo not shown) [Compound f, 4-[butoxy(methyl)phosphoryl]-2-ureido-butanoic acid]
- herbicidal activity against SETVI (Setaria viridis (SETVI)): moderate (A moderate herbicidal activity is given at values of 40 to 59)
- herbicidal activity against APESV [1]: moderate (A moderate herbicidal activity is given at values of 40 to 59)

Compound: CCCCOP(C)(=O)CCC1NC(=O)NC1=O (stereo not shown) [Compound g]
- herbicidal activity against SETVI (Setaria viridis (SETVI)): moderate (A moderate herbicidal activity is given at values of 40 to 59)
- herbicidal activity against APESV [1]: moderate (A moderate herbicidal activity is given at values of 40 to 59)
